Some of the results follow.
Key:
Test in all cases: log2 fold change, soluble protein after heating vs DMSO (PISA); higher = thermal stabilisation; K562 lysate, 10 uM; active = over 0.2 and 3.5 SD of the protein, either way, in both replicates (recomputed)
ibrutinib = compound: C=CC(=O)N1CCC[C@@H](n2nc(-c3ccc(Oc4ccccc4)cc3)c3c(N)ncnc32)C1 [ibrutinib]
Procedure, shortened: (§1)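 A 30 min treatment with 10 μM compound was applied to crude K562 extract at 1 mg/mL protein in PBS pH 7.4 with 1 mM MgCl2. Heating for 3 min spanned 48°C-58°C, after which aliquots were pooled, adjusted to 0.5% NP-40 at 4°C and spun at 21,000xg for 90 min. TMTpro 16plex LC-MS/MS of the supernatant, with channel sums equalised, gave values recorded as log-two fold change in thermal stability against solvent controls, from duplicates.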

Amino acid sequences for entries named in this document (tags omitted). A change or cut given only in a name is not applied to a line headed by its entry.
UniProt O43181, whole entry, looked up: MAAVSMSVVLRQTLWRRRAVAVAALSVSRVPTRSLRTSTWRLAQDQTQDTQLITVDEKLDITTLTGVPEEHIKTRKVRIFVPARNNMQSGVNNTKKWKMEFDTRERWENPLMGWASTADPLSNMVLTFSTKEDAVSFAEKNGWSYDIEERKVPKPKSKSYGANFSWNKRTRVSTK
UniProt Q96PU5: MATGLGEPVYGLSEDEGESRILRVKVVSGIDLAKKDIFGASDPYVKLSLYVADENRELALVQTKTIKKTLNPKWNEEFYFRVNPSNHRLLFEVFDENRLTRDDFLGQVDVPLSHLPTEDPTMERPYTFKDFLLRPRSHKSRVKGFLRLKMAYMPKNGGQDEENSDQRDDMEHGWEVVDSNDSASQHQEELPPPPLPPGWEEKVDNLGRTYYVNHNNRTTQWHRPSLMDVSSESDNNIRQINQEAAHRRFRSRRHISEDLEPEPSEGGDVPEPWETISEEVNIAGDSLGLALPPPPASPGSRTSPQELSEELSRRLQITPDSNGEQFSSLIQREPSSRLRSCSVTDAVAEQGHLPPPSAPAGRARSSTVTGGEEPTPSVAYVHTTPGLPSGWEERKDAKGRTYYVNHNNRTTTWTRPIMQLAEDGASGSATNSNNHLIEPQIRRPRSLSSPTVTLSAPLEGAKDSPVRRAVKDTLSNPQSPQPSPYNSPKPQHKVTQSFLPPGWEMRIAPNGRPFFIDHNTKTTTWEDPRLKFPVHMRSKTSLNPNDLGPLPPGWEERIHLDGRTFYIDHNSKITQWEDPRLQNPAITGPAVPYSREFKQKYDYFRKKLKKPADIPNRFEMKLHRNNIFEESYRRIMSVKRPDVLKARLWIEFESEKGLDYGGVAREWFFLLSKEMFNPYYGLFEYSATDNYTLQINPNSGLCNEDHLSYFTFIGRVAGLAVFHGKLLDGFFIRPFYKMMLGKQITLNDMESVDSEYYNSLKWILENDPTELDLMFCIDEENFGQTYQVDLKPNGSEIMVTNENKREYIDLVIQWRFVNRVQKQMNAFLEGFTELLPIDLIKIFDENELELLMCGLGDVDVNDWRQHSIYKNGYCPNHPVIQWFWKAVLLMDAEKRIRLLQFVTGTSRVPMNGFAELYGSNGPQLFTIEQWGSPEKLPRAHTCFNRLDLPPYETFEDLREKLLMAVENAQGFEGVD
UniProt Q9P0J0, whole entry, looked up: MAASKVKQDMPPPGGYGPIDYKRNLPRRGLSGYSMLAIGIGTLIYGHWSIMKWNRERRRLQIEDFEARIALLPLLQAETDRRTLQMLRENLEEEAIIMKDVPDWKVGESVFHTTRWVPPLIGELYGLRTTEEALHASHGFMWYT
UniProt Q9H3P2, whole entry, looked up: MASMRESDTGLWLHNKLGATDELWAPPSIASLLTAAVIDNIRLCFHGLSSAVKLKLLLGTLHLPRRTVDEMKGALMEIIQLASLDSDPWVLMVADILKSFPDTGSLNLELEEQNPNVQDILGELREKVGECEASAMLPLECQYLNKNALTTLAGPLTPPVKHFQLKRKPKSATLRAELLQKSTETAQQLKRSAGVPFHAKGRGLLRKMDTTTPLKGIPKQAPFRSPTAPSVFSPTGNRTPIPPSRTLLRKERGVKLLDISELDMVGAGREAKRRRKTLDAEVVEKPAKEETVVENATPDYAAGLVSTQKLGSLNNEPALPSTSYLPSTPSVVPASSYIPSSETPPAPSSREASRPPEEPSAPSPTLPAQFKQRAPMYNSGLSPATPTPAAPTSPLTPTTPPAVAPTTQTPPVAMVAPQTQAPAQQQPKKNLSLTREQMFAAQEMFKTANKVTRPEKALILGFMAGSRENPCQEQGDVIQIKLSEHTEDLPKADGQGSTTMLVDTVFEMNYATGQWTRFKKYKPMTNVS
UniProt Q16718, whole entry, looked up: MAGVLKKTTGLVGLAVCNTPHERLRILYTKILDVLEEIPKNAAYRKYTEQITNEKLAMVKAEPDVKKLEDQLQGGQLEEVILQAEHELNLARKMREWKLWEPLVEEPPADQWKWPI
UniProt Q9Y2I1: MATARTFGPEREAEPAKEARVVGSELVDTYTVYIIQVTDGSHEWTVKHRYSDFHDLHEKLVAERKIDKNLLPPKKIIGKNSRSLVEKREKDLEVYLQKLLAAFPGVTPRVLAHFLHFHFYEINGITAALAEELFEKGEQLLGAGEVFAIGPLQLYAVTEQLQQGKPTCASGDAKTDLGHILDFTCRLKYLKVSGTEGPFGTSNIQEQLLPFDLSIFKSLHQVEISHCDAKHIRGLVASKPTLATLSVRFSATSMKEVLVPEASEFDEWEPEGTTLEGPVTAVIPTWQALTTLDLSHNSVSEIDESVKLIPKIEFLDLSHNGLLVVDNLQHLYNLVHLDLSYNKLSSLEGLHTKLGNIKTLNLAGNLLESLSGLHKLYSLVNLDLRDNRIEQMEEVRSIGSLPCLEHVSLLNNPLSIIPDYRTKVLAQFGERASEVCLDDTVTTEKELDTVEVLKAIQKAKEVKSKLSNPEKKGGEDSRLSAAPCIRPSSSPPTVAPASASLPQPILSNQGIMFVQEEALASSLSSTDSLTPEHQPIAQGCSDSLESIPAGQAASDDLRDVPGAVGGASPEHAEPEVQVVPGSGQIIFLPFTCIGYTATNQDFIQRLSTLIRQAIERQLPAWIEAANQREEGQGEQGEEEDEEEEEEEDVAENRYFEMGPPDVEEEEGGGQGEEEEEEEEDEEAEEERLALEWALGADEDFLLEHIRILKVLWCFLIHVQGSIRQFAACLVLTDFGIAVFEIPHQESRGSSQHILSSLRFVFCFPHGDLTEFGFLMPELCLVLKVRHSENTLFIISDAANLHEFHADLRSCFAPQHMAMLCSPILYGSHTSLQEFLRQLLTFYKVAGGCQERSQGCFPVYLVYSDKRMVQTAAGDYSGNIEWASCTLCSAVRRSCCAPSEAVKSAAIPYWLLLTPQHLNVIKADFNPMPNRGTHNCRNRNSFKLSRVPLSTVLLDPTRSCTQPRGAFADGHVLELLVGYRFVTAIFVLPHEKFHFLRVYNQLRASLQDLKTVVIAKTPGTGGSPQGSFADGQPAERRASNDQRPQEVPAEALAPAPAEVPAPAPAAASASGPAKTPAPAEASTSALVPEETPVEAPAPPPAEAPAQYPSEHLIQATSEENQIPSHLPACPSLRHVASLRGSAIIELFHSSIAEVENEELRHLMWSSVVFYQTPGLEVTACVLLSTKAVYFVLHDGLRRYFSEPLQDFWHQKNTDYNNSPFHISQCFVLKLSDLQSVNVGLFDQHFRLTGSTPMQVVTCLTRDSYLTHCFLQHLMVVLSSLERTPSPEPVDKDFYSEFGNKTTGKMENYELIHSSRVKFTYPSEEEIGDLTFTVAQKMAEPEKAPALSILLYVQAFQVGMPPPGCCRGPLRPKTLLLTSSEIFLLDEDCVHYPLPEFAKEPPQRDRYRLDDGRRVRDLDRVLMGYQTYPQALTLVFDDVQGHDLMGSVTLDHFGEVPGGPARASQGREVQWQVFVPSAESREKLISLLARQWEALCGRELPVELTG
UniProt P08651, whole entry, looked up: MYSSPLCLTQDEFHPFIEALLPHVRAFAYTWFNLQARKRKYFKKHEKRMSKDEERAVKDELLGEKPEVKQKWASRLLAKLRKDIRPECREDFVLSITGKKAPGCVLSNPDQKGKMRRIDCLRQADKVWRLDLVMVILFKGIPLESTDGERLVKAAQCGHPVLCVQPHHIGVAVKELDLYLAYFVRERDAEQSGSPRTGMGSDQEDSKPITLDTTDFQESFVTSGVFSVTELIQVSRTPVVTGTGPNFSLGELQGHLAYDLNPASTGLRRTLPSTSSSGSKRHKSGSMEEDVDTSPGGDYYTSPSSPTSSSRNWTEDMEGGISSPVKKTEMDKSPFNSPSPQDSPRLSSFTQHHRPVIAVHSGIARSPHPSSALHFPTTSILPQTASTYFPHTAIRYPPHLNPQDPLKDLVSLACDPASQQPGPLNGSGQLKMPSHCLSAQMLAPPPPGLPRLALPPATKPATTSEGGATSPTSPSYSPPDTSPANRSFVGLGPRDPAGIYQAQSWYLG
UniProt Q12986: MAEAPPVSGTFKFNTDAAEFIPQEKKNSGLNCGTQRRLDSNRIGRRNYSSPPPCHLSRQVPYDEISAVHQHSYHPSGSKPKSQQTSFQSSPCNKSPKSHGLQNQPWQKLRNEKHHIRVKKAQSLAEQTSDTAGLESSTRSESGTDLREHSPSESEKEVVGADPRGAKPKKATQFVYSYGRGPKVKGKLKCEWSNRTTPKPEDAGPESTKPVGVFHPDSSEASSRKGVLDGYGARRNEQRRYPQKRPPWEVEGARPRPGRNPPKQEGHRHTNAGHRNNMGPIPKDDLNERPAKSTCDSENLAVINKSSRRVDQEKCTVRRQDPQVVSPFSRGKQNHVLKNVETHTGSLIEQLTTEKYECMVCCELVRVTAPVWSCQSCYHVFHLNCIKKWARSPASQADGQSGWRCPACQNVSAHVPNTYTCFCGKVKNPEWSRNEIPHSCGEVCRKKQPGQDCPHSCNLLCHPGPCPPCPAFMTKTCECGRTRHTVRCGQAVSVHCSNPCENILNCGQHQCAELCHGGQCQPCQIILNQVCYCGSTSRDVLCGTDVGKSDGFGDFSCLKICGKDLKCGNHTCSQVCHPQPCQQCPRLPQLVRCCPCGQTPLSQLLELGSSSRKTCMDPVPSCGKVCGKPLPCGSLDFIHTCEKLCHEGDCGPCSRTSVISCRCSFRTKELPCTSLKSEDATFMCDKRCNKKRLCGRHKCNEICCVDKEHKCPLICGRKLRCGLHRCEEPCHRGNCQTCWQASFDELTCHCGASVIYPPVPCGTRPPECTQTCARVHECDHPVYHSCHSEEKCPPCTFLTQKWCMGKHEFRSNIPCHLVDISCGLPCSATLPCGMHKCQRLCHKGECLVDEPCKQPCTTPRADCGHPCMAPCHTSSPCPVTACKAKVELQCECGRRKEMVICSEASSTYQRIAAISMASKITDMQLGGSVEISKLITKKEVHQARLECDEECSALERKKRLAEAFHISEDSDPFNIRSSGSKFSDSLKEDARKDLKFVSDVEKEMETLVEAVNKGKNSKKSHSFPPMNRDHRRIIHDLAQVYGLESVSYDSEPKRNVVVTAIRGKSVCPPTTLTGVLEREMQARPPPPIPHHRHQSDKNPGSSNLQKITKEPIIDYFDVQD
UniProt P56181: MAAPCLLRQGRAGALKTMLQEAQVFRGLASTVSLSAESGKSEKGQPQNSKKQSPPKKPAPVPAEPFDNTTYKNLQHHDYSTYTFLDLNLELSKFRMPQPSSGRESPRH
UniProt Q8TD19: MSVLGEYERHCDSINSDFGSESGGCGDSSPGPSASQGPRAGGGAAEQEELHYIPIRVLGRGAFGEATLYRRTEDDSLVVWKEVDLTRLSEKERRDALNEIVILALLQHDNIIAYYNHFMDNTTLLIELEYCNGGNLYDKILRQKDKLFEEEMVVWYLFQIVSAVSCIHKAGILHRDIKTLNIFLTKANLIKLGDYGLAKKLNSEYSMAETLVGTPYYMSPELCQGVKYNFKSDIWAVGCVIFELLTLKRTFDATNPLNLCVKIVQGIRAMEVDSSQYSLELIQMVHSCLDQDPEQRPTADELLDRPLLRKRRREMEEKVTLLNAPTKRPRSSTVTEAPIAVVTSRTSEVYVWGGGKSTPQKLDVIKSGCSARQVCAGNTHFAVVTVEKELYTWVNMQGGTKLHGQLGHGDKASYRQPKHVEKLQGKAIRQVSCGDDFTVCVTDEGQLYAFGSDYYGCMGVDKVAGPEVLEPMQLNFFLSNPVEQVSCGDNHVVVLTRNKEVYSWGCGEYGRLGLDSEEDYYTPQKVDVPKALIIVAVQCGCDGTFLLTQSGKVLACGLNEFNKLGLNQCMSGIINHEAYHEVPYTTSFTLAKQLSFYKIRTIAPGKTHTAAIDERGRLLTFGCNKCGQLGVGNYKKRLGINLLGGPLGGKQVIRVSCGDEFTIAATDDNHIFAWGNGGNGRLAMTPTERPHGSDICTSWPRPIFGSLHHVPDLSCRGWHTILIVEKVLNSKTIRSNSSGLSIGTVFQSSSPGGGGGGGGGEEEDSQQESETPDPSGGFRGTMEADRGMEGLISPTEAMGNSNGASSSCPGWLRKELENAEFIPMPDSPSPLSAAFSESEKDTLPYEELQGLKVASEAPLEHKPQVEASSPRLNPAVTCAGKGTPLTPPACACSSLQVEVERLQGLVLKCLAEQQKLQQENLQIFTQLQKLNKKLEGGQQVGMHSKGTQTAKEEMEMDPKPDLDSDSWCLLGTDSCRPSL
UniProt Q8NC96: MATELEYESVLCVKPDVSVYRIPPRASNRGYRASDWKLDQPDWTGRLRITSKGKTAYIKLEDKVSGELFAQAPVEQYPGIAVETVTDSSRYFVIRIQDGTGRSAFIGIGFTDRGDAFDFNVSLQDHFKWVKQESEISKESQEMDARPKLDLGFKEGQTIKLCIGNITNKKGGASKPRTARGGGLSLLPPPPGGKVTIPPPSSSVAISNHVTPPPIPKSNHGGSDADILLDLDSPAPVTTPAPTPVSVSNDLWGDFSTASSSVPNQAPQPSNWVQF

[1] = compound: CC(=O)c1cnc2ccc(-c3cc(Cl)c(O)c(Cl)c3)nc2c1N[C@H]1CC[C@H](CN(C)C)CC1
Procedure, shortened: as §1

ralimetinib = compound: CC(C)(C)Cn1c(N)nc2ccc(-c3[nH]c(C(C)(C)C)nc3-c3ccc(F)cc3)nc21 [ralimetinib]
Procedure, shortened: as §1

[2] = compound: CC(C)(O)CC(=O)NCCn1ccc2ncnc(Nc3ccc(Oc4cccc(C(F)(F)F)c4)c(Cl)c3)c21
Procedure, shortened: as §1

[3] = compound: CC(C)C1=C2N=C(C=C(N2N=C1)NCC3=CC=CC=C3)NCCCCCCN
Procedure, shortened: as §1

[4] = compound: CC1=C(C(CC(=O)N1)C2=CC=C(C=C2)C(F)(F)F)C(=O)NC3=C(C=C4C(=C3)C=NN4)F
Procedure, shortened: as §1

[5] = compound: CC1=C(C2=C(C=C1)C(=O)C3=CC=CC=C3N2CCCN)C
Procedure, shortened: as §1

[6] = compound: CC1=C(C=C(C=C1)NC(=O)C2=CC(=CC=C2)C(C)(C)C#N)NC3=CC4=C(C=C3)N=CN(C4=O)C
Procedure, shortened: as §1

[7] = compound: CC1=C(C=C(C=C1)NC(=O)C2=CC(=CC=C2)N(C)C)NC(=O)C3=CC=C(C=C3)O
Procedure, shortened: as §1

[8] = compound: CC1=CC=C(C=C1)SC2=C3C=C(SC3=CN=C2)C(=O)N
Procedure, shortened: as §1

vemurafenib = compound: CCCS(=O)(=O)Nc1ccc(F)c(C(=O)c2c[nH]c3ncc(-c4ccc(Cl)cc4)cc23)c1F [vemurafenib]
Procedure, shortened: as §1

[9] = compound: CCCS(=O)(=O)Nc1ccc(F)c(C(=O)c2c[nH]c3ncc(Cl)cc23)c1F
Procedure, shortened: as §1

barasertib = compound: CCN(CCCOc1ccc2c(Nc3cc(CC(=O)Nc4cccc(F)c4)[nH]n3)ncnc2c1)CCOP(=O)(O)O [barasertib]
Procedure, shortened: as §1

[10] = compound: CC[C@@H]1C(=O)N(C)c2cnc(Nc3ccc(C(=O)NC4CCN(C)CC4)cc3OC)nc2N1C1CCCC1
Procedure, shortened: as §1

volasertib = compound: CC[C@@H]1C(=O)N(C)c2cnc(Nc3ccc(C(=O)N[C@H]4CC[C@H](N5CCN(CC6CC6)CC5)CC4)cc3OC)nc2N1C(C)C [volasertib]
Procedure, shortened: as §1

[11] = compound: CCn1c(C(=O)N(C2CC2)C2CC2)cc2c3c(ncn3C)c(Nc3cc(C)n(C)n3)nc21
Procedure, shortened: as §1

[12] = compound: CCn1cc(-c2ccnc3[nH]c(-c4cccc(CN(C)C)c4)cc23)c(-c2ccc(NC(=O)N(C)C)cc2)n1
Procedure, shortened: as §1

[13] = compound: CN1CCC(CNc2ccc3ncc(-c4cccc(OC(F)(F)F)c4)n3n2)CC1
Procedure, shortened: as §1

saracatinib = compound: CN1CCN(CCOc2cc(OC3CCOCC3)c3c(Nc4c(Cl)ccc5c4OCO5)ncnc3c2)CC1 [saracatinib]
Procedure, shortened: as §1

sotrastaurin = compound: CN1CCN(c2nc(C3=C(c4c[nH]c5ccccc45)C(=O)NC3=O)c3ccccc3n2)CC1 [sotrastaurin]
Procedure, shortened: as §1

Measured: log2 fold change

NDUFS4 (UniProt O43181)
inactive: ibrutinib 0.047 | [1] 0.011 | ralimetinib -0.017 | [2] -0.065 | [3] -0.008 | [4] -0.005 | [5] -0.039 | [6] 0.001 | [7] 0.028 | [8] -0.005 | vemurafenib 0.029 | [9] 0.025 | barasertib 0.009 | [10] 0.078 | volasertib -0.002 | [11] -0.026 | [12] -0.034 | [13] -0.006 | saracatinib 0.02 | sotrastaurin 0.056

NEDD4L (UniProt Q96PU5)
inactive: ibrutinib -0.081 | [1] -0.004 | ralimetinib -0.009 | [2] -0.002 | [3] 0.03 | [4] -0.022 | [5] 0.005 | [6] -0.022 | [7] -0.006 | [8] 0.009 | vemurafenib 0.022 | [9] 0.019 | barasertib -0.002 | [10] -0.039 | volasertib -0.049 | [11] 0.039 | [12] -0.03 | [13] 0.023 | saracatinib -0.004 | sotrastaurin 0.026

NDUFA13 (UniProt Q9P0J0)
inactive: ibrutinib -0.033 | [1] 0.004 | ralimetinib 0.009 | [2] -0.081 | [3] -0.034 | [4] 0.005 | [5] 0.006 | [6] 0.007 | [7] -0.006 | [8] 0.029 | vemurafenib 0.004 | [9] 0.014 | barasertib 0.075 | [10] 0.015 | volasertib 0.014 | [11] -0.013 | [12] 0.005 | [13] -0.008 | saracatinib 0.003 | sotrastaurin -0.013

NELFA (UniProt Q9H3P2)
inactive: ibrutinib 0 | [1] 0.001 | ralimetinib -0.038 | [2] 0.003 | [3] -0.012 | [4] 0.008 | [5] 0.008 | [6] -0.022 | [7] -0.04 | [8] -0.024 | vemurafenib 0.015 | [9] 0.02 | barasertib -0.005 | [10] -0.016 | volasertib -0.083 | [11] 0.007 | [12] 0.037 | [13] -0.037 | saracatinib -0.013 | sotrastaurin 0.029

NEK1 isoform 3 (UniProt Q96PY6)
inactive: ibrutinib 0.038 | [1] 0.045 | ralimetinib 0.034 | [2] -0.061 | [3] -0.02 | [4] -0.016 | [5] -0.002 | [6] 0.014 | [7] -0.01 | [8] 0.05 | vemurafenib -0.058 | [9] -0.074 | barasertib 0.007 | [10] 0.018 | volasertib -0.21 | [11] -0.031 | [12] 0.042 | [13] -0.084 | saracatinib 0.041 | sotrastaurin 0.015

NEMF (UniProt O60524)
inactive: ibrutinib 0.003 | [1] 0.006 | ralimetinib 0.003 | [2] -0.02 | [3] -0.026 | [4] 0.009 | [5] -0.046 | [6] 0.001 | [7] 0.023 | [8] 0.028 | vemurafenib -0.03 | [9] 0.019 | barasertib -0.008 | [10] -0.012 | volasertib -0.008 | [11] 0.017 | [12] 0.059 | [13] -0.036 | saracatinib 0.017 | sotrastaurin 0.002

NDUFA5 (UniProt Q16718)
inactive: ibrutinib 0.016 | [1] -0.021 | ralimetinib 0.013 | [2] -0.078 | [3] -0.121 | [4] -0.041 | [5] -0.032 | [6] 0.088 | [7] 0.003 | [8] 0.051 | vemurafenib -0.032 | [9] -0.012 | barasertib 0.187 | [10] 0.012 | volasertib 0.011 | [11] 0.002 | [12] -0.014 | [13] -0.093 | saracatinib 0.02 | sotrastaurin -0.068

NISCH (UniProt Q9Y2I1)
inactive: ibrutinib 0.009 | [1] -0.035 | ralimetinib 0.037 | [2] -0.014 | [3] -0.024 | [4] -0.013 | [5] -0.003 | [6] 0.003 | [7] 0.01 | [8] 0.005 | vemurafenib -0.01 | [9] -0.013 | barasertib 0.014 | [10] -0.042 | volasertib -0.039 | [11] 0.028 | [12] 0.051 | [13] -0.106 | saracatinib -0.03 | sotrastaurin 0.017

NFIC (UniProt P08651)
active: [12] -0.453
inactive: ibrutinib -0.019 | [1] 0.014 | ralimetinib 0.009 | [2] -0.058 | [3] 0.235 | [4] -0.038 | [5] -0.044 | [6] 0.049 | [7] 0.04 | [8] -0.082 | vemurafenib -0.071 | [9] 0.014 | barasertib -0.106 | [10] 0.101 | volasertib -0.001 | [11] -0.01 | [13] 0.055 | saracatinib 0.049 | sotrastaurin -0.01

NFX1 (UniProt Q12986)
inactive: ibrutinib -0.014 | [1] -0.021 | ralimetinib -0.059 | [2] 0.01 | [3] 0.068 | [4] 0.018 | [5] 0.109 | [6] -0.007 | [7] -0.007 | [8] -0.114 | vemurafenib 0.019 | [9] 0.05 | barasertib 0.102 | [10] 0.225 | volasertib 0.014 | [11] -0.035 | [12] -0.085 | [13] 0.016 | saracatinib -0.051 | sotrastaurin 0.023

NDUFV3 isoform 2 (UniProt P56181)
inactive: ibrutinib 0.026 | [1] -0.01 | ralimetinib 0.032 | [2] -0.018 | [3] -0.004 | [4] -0.002 | [5] -0.019 | [6] -0.02 | [7] 0.003 | [8] -0.027 | vemurafenib -0.005 | [9] 0.004 | barasertib -0.036 | [10] 0.03 | volasertib 0.01 | [11] -0.045 | [12] -0.088 | [13] 0.021 | saracatinib -0.006 | sotrastaurin -0.027

Reprinted at random: two entries already listed.
NFX1 (UniProt Q12986)
inactive: ibrutinib -0.014 | [1] -0.021 | ralimetinib -0.059 | [2] 0.01 | [3] 0.068 | [4] 0.018 | [5] 0.109 | [6] -0.007 | [7] -0.007 | [8] -0.114 | vemurafenib 0.019 | [9] 0.05 | barasertib 0.102 | [10] 0.225 | volasertib 0.014 | [11] -0.035 | [12] -0.085 | [13] 0.016 | saracatinib -0.051 | sotrastaurin 0.023

NDUFA5 (UniProt Q16718)
inactive: ibrutinib 0.016 | [1] -0.021 | ralimetinib 0.013 | [2] -0.078 | [3] -0.121 | [4] -0.041 | [5] -0.032 | [6] 0.088 | [7] 0.003 | [8] 0.051 | vemurafenib -0.032 | [9] -0.012 | barasertib 0.187 | [10] 0.012 | volasertib 0.011 | [11] 0.002 | [12] -0.014 | [13] -0.093 | saracatinib 0.02 | sotrastaurin -0.068

Next part.

NDUFS8 (UniProt O00217)
inactive: ibrutinib 0.055 | [1] 0.013 | ralimetinib -0.002 | [2] -0.068 | [3] -0.031 | [4] 0.008 | [5] 0.048 | [6] 0.025 | [7] 0.005 | [8] -0.021 | vemurafenib 0.003 | [9] 0.036 | barasertib 0.09 | [10] -0.031 | volasertib -0.007 | [11] 0.02 | [12] 0.028 | [13] -0.168 | saracatinib -0.008 | sotrastaurin 0.01

NEK9 (UniProt Q8TD19)
inactive: ibrutinib 0.005 | [1] 0.027 | ralimetinib 0.055 | [2] 0 | [3] 0.01 | [4] 0.006 | [5] -0.01 | [6] 0.012 | [7] 0.009 | [8] 0.016 | vemurafenib -0.001 | [9] 0.054 | barasertib -0.008 | [10] 0.004 | volasertib -0.01 | [11] 0.004 | [12] -0.046 | [13] 0.048 | saracatinib 0.035 | sotrastaurin -0.016

NIBAN2 (UniProt Q96TA1)
inactive: ibrutinib -0.024 | [1] 0.002 | ralimetinib -0.01 | [2] 0.004 | [3] -0.022 | [4] 0.011 | [5] 0.011 | [6] 0.01 | [7] 0.01 | [8] 0 | vemurafenib -0.028 | [9] -0.001 | barasertib 0.036 | [10] 0.013 | volasertib -0.01 | [11] 0.046 | [12] 0.074 | [13] 0 | saracatinib 0.001 | sotrastaurin 0.005

NFATC2 (UniProt Q13469)
inactive: ibrutinib 0.012 | [1] 0.039 | ralimetinib -0.022 | [2] -0.061 | [3] 0.026 | [4] 0.004 | [5] -0.018 | [6] -0.026 | [7] 0.033 | [8] -0.031 | vemurafenib -0.029 | [9] 0.032 | barasertib 0.011 | [10] 0.03 | volasertib -0.069 | [11] -0.006 | [12] 0.011 | [13] -0.002 | saracatinib 0.014 | sotrastaurin -0.016

NECAP1 (UniProt Q8NC96)
inactive: ibrutinib 0.021 | [1] 0.017 | ralimetinib 0.015 | [2] -0.037 | [3] -0.023 | [4] 0.042 | [5] -0.004 | [6] 0.056 | [7] -0.008 | [8] 0.012 | vemurafenib 0.026 | [9] 0.01 | barasertib -0.011 | [10] 0.055 | volasertib 0.017 | [11] -0.034 | [12] -0.144 | [13] 0.122 | saracatinib -0.013 | sotrastaurin -0.043

— the supplement of paper PMC10849652
